Results are given in words; binding and its absence hold for the method and conditions named. In cells and extracts the contact can be indirect. Here binding means that the protein was enriched with, or labelled near, the bait; the list need not be complete.
Molecular target: KLF6 (human (endogenous in HCT15-FR)) (UniProt Q99612)
Assay: affinity purification with mass spectrometry; immunoprecipitation followed by mass spectrometry (IP-MS); bait named as KLF6 only in the discussion

The chains behind the UniProt entries cited, without tags or fusion partners.
UniProt Q99612: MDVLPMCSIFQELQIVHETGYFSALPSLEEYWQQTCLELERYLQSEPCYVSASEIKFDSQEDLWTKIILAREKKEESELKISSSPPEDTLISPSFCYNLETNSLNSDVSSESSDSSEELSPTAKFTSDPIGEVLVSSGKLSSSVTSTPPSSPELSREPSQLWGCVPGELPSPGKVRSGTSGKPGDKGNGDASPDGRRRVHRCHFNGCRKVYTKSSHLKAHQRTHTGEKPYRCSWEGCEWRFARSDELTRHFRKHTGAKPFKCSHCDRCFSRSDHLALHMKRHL
UniProt Q9Y6J9: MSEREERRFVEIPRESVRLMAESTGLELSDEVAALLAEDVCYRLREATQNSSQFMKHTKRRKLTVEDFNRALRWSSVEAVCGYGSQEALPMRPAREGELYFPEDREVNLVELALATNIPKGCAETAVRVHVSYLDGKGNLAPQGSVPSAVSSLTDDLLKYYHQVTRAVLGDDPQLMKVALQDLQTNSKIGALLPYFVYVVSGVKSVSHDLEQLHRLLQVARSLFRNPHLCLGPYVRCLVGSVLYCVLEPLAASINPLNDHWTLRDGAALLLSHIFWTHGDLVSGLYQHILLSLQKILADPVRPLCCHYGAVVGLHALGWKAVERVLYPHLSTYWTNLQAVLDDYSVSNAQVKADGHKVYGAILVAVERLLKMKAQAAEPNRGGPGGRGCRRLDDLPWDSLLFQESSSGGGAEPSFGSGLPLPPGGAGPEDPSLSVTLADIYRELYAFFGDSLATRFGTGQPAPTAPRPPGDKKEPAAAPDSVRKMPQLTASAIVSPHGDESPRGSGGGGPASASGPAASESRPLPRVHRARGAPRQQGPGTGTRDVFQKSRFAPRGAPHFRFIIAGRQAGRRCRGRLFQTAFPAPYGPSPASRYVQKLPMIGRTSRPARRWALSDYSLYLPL

binding: binds
Substance: TAF6L (from UniProt Q9Y6J9 1-622)

— PMC11958781
